Assay results from US20240174765A1 (ACADEMIA SINICA, published 2024).
No constants are given. Whether binding was seen depends on the method and setting. Some binding calls cover weakened binding; strength is not graded here.

Chains of the proteins cited; added tags and fusions are not shown.
UniProt P06733: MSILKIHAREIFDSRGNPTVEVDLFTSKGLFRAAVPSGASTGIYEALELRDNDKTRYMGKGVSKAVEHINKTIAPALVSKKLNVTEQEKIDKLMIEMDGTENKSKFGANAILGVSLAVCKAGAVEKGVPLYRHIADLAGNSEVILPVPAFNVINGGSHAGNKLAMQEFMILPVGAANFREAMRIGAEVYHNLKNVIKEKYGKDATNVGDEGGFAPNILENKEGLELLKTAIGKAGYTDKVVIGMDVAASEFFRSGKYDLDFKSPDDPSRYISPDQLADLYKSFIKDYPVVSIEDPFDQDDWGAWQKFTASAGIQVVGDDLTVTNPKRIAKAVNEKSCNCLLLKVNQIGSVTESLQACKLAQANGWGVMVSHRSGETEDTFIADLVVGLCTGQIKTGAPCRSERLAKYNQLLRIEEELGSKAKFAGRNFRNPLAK

Target: FLAG-tagged ENO1 (UniProt P06733)
Assay: flow cytometry on CL1-0 cells transfected with AS2-ENO1-FLAG or empty vector

binding: binds
B1: chimeric ENO1-22 (chENO1-22) (antibody, V domains shown)
VH: QVQLQQSGPEVVRPGVSVKISCKGSGYTFTDYAMHWVKQSHAKSLEWIGVISTYNGNTNYNQKFKGKATMTVDKSSSTAYMELARLTSEDSAIYYCARSPLRYWGQGTTLTVSS
VL: QIVLSQSPAILSASPGEKVTMTCRASSSVSYMHWYQQKPGSSPKPWIYATSNLASGVPARFSGSGSGTSYSLTISRVEAEDAATYYCQQWSSNPLTFGAGTKLELK
notes: Variable domain of anti-ENO1 mAb-22 cloned into a human IgG Fc vector; also called chimeric ENO1 mAb; chimeric ENO1 antibody
